PubChem BioAssay AID1671195 | Yale University – 2021

Test: 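Knockdowns that increase or decrease uptake of fluorescent LDL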 (primary screen)
Cells: human Huh7 hepatoma cells
Reagent: siRNA pool against human genes, 18 nM
Duration: about 2 to 2.5 days of knockdown, then 8 h LDL uptake
Treatment: DiI-labelled LDL at 30 µg/ml for 8 h, in lipoprotein-deficient serum medium
Detection: 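Fluorescent LDL signal imaged in cells, scaled to the plate median, robust z-score for each replicate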
Direction: robust z-score: higher = more LDL uptake after knockdown
Hit rule: 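a gene counts as active if at least two replicate z-scores exceed ±2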
The deposit covers about 22,000 reagents; below is a random part of them. Over the whole deposit, about 1,510 (6.9%) got an active call. 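Active includes knockdowns raising or lowering LDL uptake; positive z-scores mean more uptake, negative mean less.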 No sequences are given here.

{"gene knocked down": "HSBP1 (heat shock factor binding protein 1)", "robust z-score, replicate 1": -0.341, "robust z-score, replicate 2": -0.705, "robust z-score, replicate 3": -0.501, "activity call": "inactive"}
{"gene knocked down": "LOC388589 (retired record)", "robust z-score, replicate 1": -0.576, "robust z-score, replicate 2": -0.0453, "robust z-score, replicate 3": -0.677, "activity call": "inactive"}
{"gene knocked down": "ATP5MC2 (ATP synthase membrane subunit c locus 2)", "robust z-score, replicate 1": -0.0161, "robust z-score, replicate 2": 0.529, "robust z-score, replicate 3": 0.21, "activity call": "inactive"}
{"gene knocked down": "CCL23 (C-C motif chemokine ligand 23)", "robust z-score, replicate 1": -1.76, "robust z-score, replicate 2": -1.46, "robust z-score, replicate 3": -1.32, "activity call": "inactive"}
{"gene knocked down": "WDR5 (WD repeat domain 5)", "robust z-score, replicate 1": 1.08, "robust z-score, replicate 2": 1.05, "robust z-score, replicate 3": 1.28, "activity call": "inactive"}
{"gene knocked down": "LBX2 (ladybird homeobox 2)", "robust z-score, replicate 1": -0.593, "robust z-score, replicate 2": -0.691, "robust z-score, replicate 3": -0.258, "activity call": "inactive"}
{"gene knocked down": "SLC6A2", "robust z-score, replicate 1": 1.09, "robust z-score, replicate 2": 1.35, "robust z-score, replicate 3": 0.715, "activity call": "inactive"}
{"gene knocked down": "ZNRF1 (zinc and ring finger 1)", "robust z-score, replicate 1": 0.93, "robust z-score, replicate 2": 0.711, "robust z-score, replicate 3": 0.768, "activity call": "inactive"}
{"gene knocked down": "DNPEP (aspartyl aminopeptidase)", "robust z-score, replicate 1": 0.0394, "robust z-score, replicate 2": -0.244, "robust z-score, replicate 3": -0.285, "activity call": "inactive"}
{"gene knocked down": "ALS2CL (ALS2 C-terminal like)", "robust z-score, replicate 1": 0.606, "robust z-score, replicate 2": 0.685, "robust z-score, replicate 3": 0.454, "activity call": "inactive"}
{"gene knocked down": "ASB17 (ankyrin repeat and SOCS box containing 17)", "robust z-score, replicate 1": 3.22, "robust z-score, replicate 2": 2.55, "robust z-score, replicate 3": 2.99, "activity call": "active"}
{"gene knocked down": "PLCE1 (phospholipase C epsilon 1)", "robust z-score, replicate 1": 0.026, "robust z-score, replicate 2": 0.849, "robust z-score, replicate 3": 1.32, "activity call": "inactive"}
{"gene knocked down": "UBAC1 (UBA domain containing 1)", "robust z-score, replicate 1": -0.553, "robust z-score, replicate 2": 2.34, "robust z-score, replicate 3": 0.657, "activity call": "inactive"}
{"gene knocked down": "C3orf85 (chromosome 3 open reading frame 85)", "robust z-score, replicate 1": 0.584, "robust z-score, replicate 2": 0.146, "robust z-score, replicate 3": 0.593, "activity call": "inactive"}
{"gene knocked down": "FAHD2A (fumarylacetoacetate hydrolase domain containing 2A)", "robust z-score, replicate 1": 1.65, "robust z-score, replicate 2": 0.128, "robust z-score, replicate 3": 1.03, "activity call": "inactive"}
{"gene knocked down": "SPATA19 (spermatogenesis associated 19)", "robust z-score, replicate 1": -0.0693, "robust z-score, replicate 2": -0.539, "robust z-score, replicate 3": -0.015, "activity call": "inactive"}

2 entries already listed, arranged by “robust z-score, replicate 1”, high to low:
{"gene knocked down": "WDR5 (WD repeat domain 5)", "robust z-score, replicate 1": 1.08, "robust z-score, replicate 2": 1.05, "robust z-score, replicate 3": 1.28, "activity call": "inactive"}
{"gene knocked down": "LBX2 (ladybird homeobox 2)", "robust z-score, replicate 1": -0.593, "robust z-score, replicate 2": -0.691, "robust z-score, replicate 3": -0.258, "activity call": "inactive"}
